Reference: US8609065B2, “Molecules for targeting compounds to various selected organs, tissues or tumor cells” (Prosensa Technologies B.V., priority 2007, dated 2013)
Part of at least one peptide drawing is inferred or uncertain, most often the ends. Peptide text beside a SMILES is read from it.

How the values were obtained:
Format in all cases: cell-based
[1] = test system: N1E-115 mouse neuroblastoma cells; test: In vitro uptake of FAM-labeled peptides into neuroblastoma cells (fluorescence microscopy); settings: FAM-labeled peptide, N1E-115 cells
Method: A selection of peptides was synthesized and provided with a fluorescent label (FAM) and screened for uptake on mouse neuroblastoma cells in vitro.
N1E-115 mouse neuroblastoma cells were incubated with the FAM-labeled peptides and photographed with an inverted fluorescence microscope, without previous fixation.

[2] = test system: Rat neuronal pheochromocytoma PC12 cells; test: In vitro uptake of FAM-labeled peptide into NGF-differentiated PC12 cells
muscle cells = test: Selective uptake by muscle cells (summary statement)
Text: Therefore, these may be used for targeting diagnostic moieties or biologically active moieties to an organ or tissue or cell type of interest, especially to muscle cells or across the blood brain barrier to brain cells, to neuronal cells or to tumor cells of neuronal or neuroectodermal origin.

SMILES: CSCC[C@H](NC(=O)[C@@H]1CCCN1C(=O)[C@@H]1CCCN1C(=O)[C@H](CCCNC(=N)N)NC(=O)[C@H](Cc1c[nH]cn1)NC(=O)[C@@H](N)[C@@H](C)O)C(=O)N[C@@H](Cc1c[nH]c2ccccc12)C(=O)N[C@@H](CO)C(=O)N1CCC[C@H]1C(=O)N[C@H](C(=O)N[C@@H](Cc1c[nH]c2ccccc12)C(=O)N1CCC[C@H]1C(=O)O)C(C)C [THRPPMWSPVWP] (H-THRPPMWSPVWP-OH; N-terminus and C-terminus assumed)
- intracellular staining pattern after uptake [1]: uniform staining of the cytoplasm as well as the nucleus
- uptake by the neuroblastoma cells ([1]; inverted fluorescence microscope, no fixation): efficiently taken up
- staining of neurite growth [2]: efficiently stained the NGF-induced neurite growth
- uptake into rat neuronal cells [2]: uptake of the peptide into rat neuronal cells
- selective uptake by muscle cells (muscle cells): selectively taken up by muscle cells
